Experimental data from US20110123529A1.
No constants are given. Whether binding was seen depends on the method and setting. Binding calls can cover weak binding; strength is not graded here. Each block holds one binder with its values, some of them ahead of it.

Target: epidermal growth factor receptor (EGFR) (human) (UniProt P00533)
Assay: phage ELISA on Her-14 cells (vs 3T3) and/or solid-phase coated EGFR (vs non-coated well)

binding: binds
B1: EGFR-IIIa5 (VHH)
VHH: EVQLVESGGGLVQAGGSLRLSCTASGRTFSSYAMGWFRQTPGKEREFVAAITSSGGSTYYADSVKGRFTISRDNAKSTMYLQMDSLMLDDTSVYYCAADSSRPQYSDSALRRILSLSNSYPYWGQGTQVTVSS

binding: binds
B2: EGFR-Ia1 (VHH)
VHH: QVQLQESGGGLVQAGGSLLLSCAASGRTFSSYAMGWFRQAPGKEREFVAAINWSGGSTSYADSVKGRFTISRDNTKNTVYLQMNSLKPEDTAAFYCAATYNPYSRDHYFPRMTTEYDYWGQGTQVTVSS

binding: binds
B3: EGFR-3.40 (VHH)
VHH: QVKLEESGGGLVQAGGSLRLSCSASGLTFSNYAMAWFRQAPGKEREFVATISQRGGMRHYLDSVKDRFTISRDNAKNTVYLQMNSLKPDDTAVYYCAADLMYGVDRRYDYWGRGTQVTVSS

binding: binds
B4: EGFR-4.22 (VHH)
VHH: QVKLEESGGGLVQAGGSLRLSCAASGSIFSINAMGWYRQAPGKQRELVARITGTGTGITGAVSTNYADSVKGRFTISRDNARNTVYLQMNSLKPEDTAVYYCAADRSRTIVVPDYWGQGTQVTVSS

binding: binds
B5: EGFR-1.4 (VHH)
VHH: EVQLVESGGGLVQAGGSLRLSCAASGRTFSNYVMGWFRQAPGKERDFVVGIGRSGGDNTYYADSVKGRFTISWDNAKNTMYLQMNSLKPEDTAVYYCAASTYSRDTIFTKWANYNYWGQGTQVTVSS

binding: binds
B6: EGFR-4.11 (VHH)
VHH: QVKLEESGGGLVQAGDSLRLSCAASGRSFSSITMGWFRQAPGKERQFVSAINSNGNRYYADSVKGRFTISRDNAKNTVYLQMNSLKPEDTAVYYCAAVQAYSSSSDYYSQEGAYDYWGQGTQVTVSS

binding: binds
B7: EGFR-1.34 (VHH)
VHH: QVQLQESGGGLVQAGGSLRLSCAASGRTFSKYAMGWFRQAPGKEREFVSAISWSDGSTYYADSVKGRFTISRDNAKNTVYLQVNSLKPEDTAVYYCAATYLVDVWAVHVPIRPYEYDYWGQGTQVTVSS

binding: binds
B8: EGFR-4.21 (VHH)
VHH: EVQLVESGGGLVQAGGSLRLSCAVSGRTFSSMGWFRQAPGKEREFVATINLSGDRTDYADSVKGRFTISRDNPKNTVYLQMDSLEPEDSAVYYCAGTSLYPSNLRYYTLPGTYADWGQGTQVTVSS

binding: binds
B9: EGFR-3.32 (VHH)
VHH: QVQLQESGGGLVQAGGSLRLSCAASGRTFSGYAMGWFRQAPGEEREFVAAISWRGTSTYYGDSAKGRFTISRDNAKNTVYLQMNSLKPEDTAVYYCAAGSHSDYAPDYDYWGQGTQVTVSS

binding: binds
B10: EGFR-3.39 (VHH)
VHH: QVQLQESGGGLVQTGGSLRLSCAASGRYIMGWFRQAPGKEREFVAGISRSGASTAYADSVKDRFTISRDSALNTVYLQMNSLKAEDTAVYFCAAALAIRLGIPRGETEYEYWGQGTQVTVSS

binding: binds
B11: EGFR-3.18 (VHH)
VHH: EVQLVESGGGLVQPGGSLRLSCVASGFTFADYAMSWVRQAPGKGLQWVSSISYNGDTTYYAESMKDRFTISRDNAKNTLYLQMNSLKSEDTAVYYCASSGSYYPGHFESWGQGTQVTVSS

binding: binds
B12: EGFR-2.6 (VHH)
VHH: QVQLQESGGGLVQAGGSLRLSCAASGRTFSNYAMGWFRQAPGKEREFVAAINWGGGNTYYADSVKGRFTISRDNAKNTVYLQMNSLKPEDTAVYYCAASEWGGSDYDHDYDYWGQGTQVTVSS

binding: binds
B13: EGFR-Ia7 (VHH)
VHH: QVQLQESGGRLVQTGGSLRLSCAASGGTFGTYALGWFRQAPGKEREFVAAISRFGSTYYADSVKGRFTISRDNANNTVYLEMNSLKPEDTAVYYCAAREGVALGLRNDANYWGQGTQVTVSS

binding: binds
B14: EGFR-1.33 (VHH)
VHH: EVQLVESGGGLVQPGGSLRLSCAASGFTFSSHYMSWFRQAPGKEREFVAAITSSSRTYYTESVKGRFTISRDNAKNTVYLQMNSLKSEDTAVYYCAADRTFYGSTWSKYDYRGQGTQVTVSS

binding: binds
B15: EGFR-1.38 (VHH)
VHH: QVQLQDSGGGLVQAGDSLRLSCAASGRSFGGYAMGWFRQAPGKEREFVAAISWSGGSTYYADSLKGRFTISRDNAKNTVYLQMNSLKPEDTALYYCAAGLRPSPNYNHERSYDYWGQGTQVTVSS

binding: binds
B16: EGFR-3.34 (VHH)
VHH: QVQLQESGGGLVQAGGSLRLSCAASGRTFSSYAIGWFRQAPGKEREFVAAISWGGSNTYYADSVKGRFTISRDNAKNTVYLQMNSLKPEDTAVYYCAAGEVSNSDYAYEYDYWGQGTQVTVSS

binding: binds
B17: EGFR-1.9 (VHH)
VHH: QVQLQESGGGLVKAGGSLRLSCAASGRTFSSYVMGWFRQAPGKEREFVGAIHWSGGRTYYADSVKGRFTISSDNAKNTLYLQMNSLKPEDTAVYYCAASRIIYSYVNYVNPGEYDYWGQGTQVTVSS

binding: binds
B18: EGFR-2.20 (VHH)
VHH: EVQLVESGGGLVQAGGSLRLSCAASGRSFSSYAMAWFRQAPGKEREFVAAISWGGGSTYYAVSVKGRFTISRDNAKNTVYLQMNSLKPEDTARYYCAADETFHSSAYGEYEYWGQGTQVTVSS

binding: binds
B19: EGFR-Ia15 (VHH)
VHH: QVQLQDSGGGLVQAGGSLRLSCAASGGTFSSYAMGWFRQAPGKEREFVAAIGLNTYYADSVKGRFTISRDNAKNTVYLQMNSLKPEDTAVYYCAARTSGVVGGTPKRYDYWGQGTQVTVSS

binding: binds
B20: EGFR-Ia26 (VHH)
VHH: QVQLQESGGGSVQAGGSLKLSCAASGRGFSRYAMGWFRQAPGQDREFVATISWTNSTDYADSVKGRFAISRDNAKNTAYLQMNSLKPEDTAVYYCAADKWASSTRSIDYDYWGQGIQVTVSS
